Some of the results follow. Rule as the data show it: active = 150% or more and inactive = the rest. Single values are uncertain, as repeats are few or missing.

For the test, the system named is Staphylococcus aureus JE2-lux inside RAW 264.7 macrophages. The experiment in a line: intracellular bacterial bioluminescence relative to DMSO vehicle; higher = higher intracellular bacterial metabolic activity. The settings on record: 10 µM; treatment time 4 h; gentamicin 50 µg/ml.
For the compound `CCc1cc(=O)n2ncc(C(=O)Nc3cc(Cl)ccc3C)c2[nH]1`, the intracellular bacterial bioluminescence is inactive: 117%.

Turning to `CC(C)(C)NC(=O)CCn1c(-c2cccnc2)cc2cccnc21`, the intracellular bacterial bioluminescence is inactive: 95.1%.

As for `COc1ccc(OC)c(/C=N/NC(=O)CNC(=O)c2c(F)cccc2Cl)c1`, the intracellular bacterial bioluminescence is inactive: 77.1%.

As for `COc1ccccc1/N=c1\oc2ccc(Br)cc2cc1C(=O)NC(C)=O`, the intracellular bacterial bioluminescence was inactive: 112%.

Take `COCCn1/c(=N/C(=O)c2ccno2)sc2cc(S(C)(=O)=O)ccc21`: the intracellular bacterial bioluminescence is inactive: 114%.

With `CCNc1nc(NCC)n2c(SCC(=O)Nc3ccc([N+](=O)[O-])cc3)nnc2n1`, the intracellular bacterial bioluminescence was inactive: 89.7%.

Regarding `COc1ccc(C2C(C#N)=C(SC)NC3=C2C(=O)CC(C)(C)C3)cc1` (stereo not given), the intracellular bacterial bioluminescence was inactive: 77.3%.

For `CCN1CCN(c2nc3ncn(CC(=O)N4CCN(c5ccc(F)cc5)CC4)c(=O)c3s2)CC1`, the intracellular bacterial bioluminescence was inactive: 105%.

As to `O=C(Cn1c(=O)n2nc(-c3ccc(F)cc3)nc2c2ccccc21)N1CCN(c2ccc(F)cc2)CC1`, the intracellular bacterial bioluminescence is inactive: 102%.

For `COC(=O)c1ccc(NC(=O)CSc2nc(-c3ccccc3C)ns2)cc1`, the intracellular bacterial bioluminescence is inactive: 66.4%.

On to `Cc1ccnc(SCc2cc(=O)c(OC(=O)c3c(F)cccc3Cl)co2)n1`, for which the intracellular bacterial bioluminescence was inactive: 87.4%.

As to `Cc1cc(OCC(=O)Nc2ccc3c(c2)nc2n3CCN(C(C)C)C2)ccc1Cl`, the intracellular bacterial bioluminescence is inactive: 41.9%.

Take `Cc1sc(NC(=O)C2(C)CCCO2)nc1-c1cc2ccccc2oc1=O` (stereo not given): the intracellular bacterial bioluminescence is inactive: 91.1%.

Turning to `Cc1ccc(NC(=O)Cn2cnc3c(cnn3-c3ccc(F)cc3)c2=O)c(C)c1`, the intracellular bacterial bioluminescence was inactive: 94.7%.

With `COC(=O)COc1cccc2c(=O)n(CC(=O)Nc3ccc([N+](=O)[O-])cc3)ccc12`, the intracellular bacterial bioluminescence is inactive: 43.9%.

In the case of `O=C(Nc1c(C(=O)Nc2ccccc2F)oc2ccccc12)c1ccc(Br)o1`, the intracellular bacterial bioluminescence was inactive: 82.7%.

Take `CCOc1ccc2ccccc2c1C(=O)Nn1cnc2c(cnn2-c2ccccc2)c1=O`: the intracellular bacterial bioluminescence is inactive: 140%.

On to `COC(=O)c1ccccc1NC(=O)CSc1nnc(CSc2nc(C)cc(C)n2)o1`, for which the intracellular bacterial bioluminescence is inactive: 112%.

`Cc1cc(C)c2c(n1)sc1c(=O)n(-c3cccc(C(=O)Nc4ccc(C(C)C)cc4)c3)cnc12`: the intracellular bacterial bioluminescence was inactive: 84.9%.

Regarding `Clc1ccccc1CCNc1ncnc2oc3c(c12)CCCC3`, the intracellular bacterial bioluminescence is inactive: 123%.

As for `COC(=O)CSC1=C(C#N)C(c2ccccc2)C(C(=O)Nc2ccccc2OC)=C(C)N1` (stereo not given), the intracellular bacterial bioluminescence is inactive: 83.8%.

As for `O=C1CCc2cc(S(=O)(=O)Nc3ccccc3N3CCOCC3)ccc2N1`, the intracellular bacterial bioluminescence was inactive: 105%.

As for `Cc1ccc(-c2cnnc(-n3nc(C)c4c3NC(=O)CC4c3ccc(C)c(C)c3)n2)cc1` (stereo not given), the intracellular bacterial bioluminescence is inactive: 121%.

`COc1ccc(CCN2C(=O)CC(Nc3ccc(N(C)C)cc3)C2=O)cc1OC` (stereo not given): the intracellular bacterial bioluminescence was inactive: 51.4%.

In the case of `Cc1ccc(Cn2c(Sc3nnc(C)s3)nc3c2c(=O)[nH]c(=O)n3C)cc1`, the intracellular bacterial bioluminescence is inactive: 113%.

Consider `CCOc1ccccc1/C=N/NC(=O)CNC(=O)c1cccs1`, for which the intracellular bacterial bioluminescence is inactive: 77.6%.

For the compound `Cc1nc(-c2ccccc2)c(CC(=O)NC(c2ccccc2)c2cccnc2)s1` (stereo not given), the intracellular bacterial bioluminescence was inactive: 93.5%.

Turning to `Cc1cc(=O)n2nc(CN(c3ccc(Cl)cc3)S(=O)(=O)c3ccccc3)nc2[nH]1`, the intracellular bacterial bioluminescence is inactive: 122%.

Regarding `CCOC(=O)c1ccc(Nc2nnc3nc(C)cc(C)n23)cc1`, the intracellular bacterial bioluminescence was inactive: 14.4%.

For the compound `CCOc1ccc(-c2nc3c(c(SCC(N)=O)n2)Cc2cccc(C)c2O3)cc1`, the intracellular bacterial bioluminescence is inactive: 95.6%.

For the compound `CCCc1cc(=O)[nH]c(SCC(=O)NCc2ccc3c(c2)OCO3)n1`, the intracellular bacterial bioluminescence is inactive: 85.9%.

On to `CCCc1cc(=O)[nH]c2nnc(SCC(=O)N(C)c3ccccc3)n12`, for which the intracellular bacterial bioluminescence was inactive: 123%.

As to `CCc1ccc2c(c1)c1nnc(SCC(=O)c3ccc(F)cc3)nc1n2C`, the intracellular bacterial bioluminescence was inactive: 81.7%.

For the compound `Cc1cccc(C2CCCN2C(=O)c2cc(C(C)C)on2)c1` (stereo not given), the intracellular bacterial bioluminescence was inactive: 114%.

With `CCc1ccc2c(c1)c1nnc(SCC(=O)Nc3nnc(C)s3)nc1n2C`, the intracellular bacterial bioluminescence is inactive: 109%.

Consider `CCOCc1nnc(NC(=O)c2csc(C(C)=O)c2)s1`, for which the intracellular bacterial bioluminescence was inactive: 132%.

`CCOC(=O)c1oc2cc(O)cc(O)c2c(=O)c1-c1ccc(OC)c(OC)c1`: the intracellular bacterial bioluminescence was inactive: 109%.

Turning to `CCCCOc1ccc(-c2cc3c(N4CCN(c5ccc(OC)cc5)CC4)nccn3n2)cc1`, the intracellular bacterial bioluminescence is inactive: 93.9%.

For `CCc1ccccc1-n1ccn(CC(=O)c2ccc(F)cc2)c(=O)c1=O`, the intracellular bacterial bioluminescence is inactive: 108%.

For the compound `Nc1c(C(=O)c2ccc(Br)cc2)sc2nc3c(cc12)CCC3`, the intracellular bacterial bioluminescence is inactive: 119%.

As for `O=S(=O)(c1cc(-c2noc(C3CC3)n2)cs1)N1CCn2c1nc1ccccc12`, the intracellular bacterial bioluminescence is inactive: 90%.

With `COc1cccc2c1Oc1nc(-c3ccccc3)[nH]c(=S)c1C2`, the intracellular bacterial bioluminescence is inactive: 98%.

In the case of `CCn1nc(-n2cnnc2)c(NS(=O)(=O)c2ccc(C3CCCCC3)cc2)c1C`, the intracellular bacterial bioluminescence is inactive: 108%.

On to `COc1ccccc1NC(=O)N1CCCC(C(=O)NCc2ccc(F)cc2)C1` (stereo not given), for which the intracellular bacterial bioluminescence was inactive: 111%.

In the case of `Cc1cc2cc(CCNC(=O)c3ccc(S(=O)(=O)N4CCOCC4)cc3)c(=O)[nH]c2cc1C`, the intracellular bacterial bioluminescence was inactive: 86.8%.

Regarding `O=C(CSc1nc(-c2ccccc2Cl)ns1)Nc1ccc2c(c1)OCO2`, the intracellular bacterial bioluminescence is inactive: 97.3%.

On to `Cc1nc2c(ccc3nc(NC(=O)c4ccco4)sc32)s1`, for which the intracellular bacterial bioluminescence was inactive: 105%.

In the case of `O=C(CNc1ccc(S(=O)(=O)C(F)(F)F)cc1[N+](=O)[O-])NC1CCS(=O)(=O)C1` (stereo not given), the intracellular bacterial bioluminescence was inactive: 106%.

For `CCOc1ccccc1NC(=O)CC1Sc2ccc(C(F)(F)F)cc2NC1=O` (stereo not given), the intracellular bacterial bioluminescence is inactive: 105%.

With `Cc1ccc(Nc2nc(Nc3ccc4c(c3)OCO4)nc(N3CCOCC3)n2)cc1C`, the intracellular bacterial bioluminescence is inactive: 63.1%.

For `COCCn1c2ccccc2n2c(=O)n(Cc3ccc(F)cc3)nc12`, the intracellular bacterial bioluminescence was inactive: 98%.

Turning to `Cc1ccc2c(c1)NC(SCC(=O)Nc1ccc(C)c(F)c1)=NS2(=O)=O`, the intracellular bacterial bioluminescence was inactive: 105%.

In the case of `Cc1ccnc(SCc2cc(=O)c(OC(=O)c3ccc(Br)o3)co2)n1`, the intracellular bacterial bioluminescence is inactive: 110%.

Take `Cn1c(=O)c2c(nc(CN3CCC(C(N)=O)CC3)n2Cc2ccccc2)n(C)c1=O`: the intracellular bacterial bioluminescence is inactive: 96.6%.

In the case of `CC1=C(C(=O)Nc2ccc(Cl)cc2)C(c2ccco2)C(C#N)=C(SCc2ccccc2)N1` (stereo not given), the intracellular bacterial bioluminescence was inactive: 105%.

For `CC(=O)c1cccc(N(C(=O)c2cnccn2)C(C(=O)NC2CCCC2)c2cccs2)c1` (stereo not given), the intracellular bacterial bioluminescence is inactive: 82.4%.

With `C=CCN1C(=O)/C(=C/c2ccco2)S/C1=N/c1nccs1`, the intracellular bacterial bioluminescence is inactive: 95.9%.

Turning to `CCOC(=O)N1CCN(C(=O)CCCn2c(=S)[nH]c3c([nH]c4ccc(OC)cc43)c2=O)CC1`, the intracellular bacterial bioluminescence is inactive: 114%.

Regarding `O=c1[nH]c2cc3c(cc2c(=O)n1Cc1nc(-c2ccccc2Br)no1)OCO3`, the intracellular bacterial bioluminescence was inactive: 51.9%.

`CC(C)c1csc(-c2csc(S(=O)(=O)NCc3ccc4c(c3)OCO4)c2)n1`: the intracellular bacterial bioluminescence was inactive: 39.5%.

As for `Cc1nc(-c2csc(S(=O)(=O)NCc3ccccc3Cl)c2)sc1C`, the intracellular bacterial bioluminescence was inactive: 89.6%.

Take `Cc1cc2oc(C(=O)NCc3ccncc3)c(C)c2cc1C`: the intracellular bacterial bioluminescence was inactive: 43.9%.

For the compound `CSC1=C(C#N)C(c2ccco2)C(C(=O)Nc2ccccc2C)=C(C)N1` (stereo not given), the intracellular bacterial bioluminescence was inactive: 95.3%.

For `NC(=O)c1ccc(NC(=O)c2cn(Cc3cccc(F)c3)nc2OCc2cccc(F)c2)cc1`, the intracellular bacterial bioluminescence was inactive: 92.4%.

Regarding `Cc1ccc(Cn2nnc3c(SCC(=O)NCc4ccc5c(c4)OCO5)ncnc32)cc1`, the intracellular bacterial bioluminescence was inactive: 88.1%.

As for `Nc1c(-c2nc(-c3ccncc3)no2)nnn1-c1ccccc1Cl`, the intracellular bacterial bioluminescence is inactive: 80.1%.

For the compound `O=C(CCn1c(=O)sc2ccccc21)Nc1ccccc1F`, the intracellular bacterial bioluminescence is inactive: 88.6%.

For `COc1cccc(-c2nnc(SCC(=O)Nc3ccc(C(C)=O)cc3)n2-n2cccc2)c1`, the intracellular bacterial bioluminescence is inactive: 73.6%.

With `Cc1n[nH]c(=O)nc1N/N=C/c1ccc(N(C)C)cc1`, the intracellular bacterial bioluminescence is inactive: 105%.

Take `O=C(Nc1ccccc1-n1cccc1)c1cnccn1`: the intracellular bacterial bioluminescence is inactive: 104%.

`COCCn1c(SCC(=O)Nc2cccc([N+](=O)[O-])c2)nc2c(c1=O)SCC2`: the intracellular bacterial bioluminescence was inactive: 51.3%.

On to `O=C(CS(=O)(=O)c1c[nH]c2ccccc12)N1CCc2ccccc21`, for which the intracellular bacterial bioluminescence is inactive: 89.2%.

For `CCc1cccc2sc(N(Cc3ccccn3)C(=O)c3ccc(C#N)cc3)nc12`, the intracellular bacterial bioluminescence was inactive: 111%.

As for `COc1ccc(C(=O)Nc2ccc3nc[nH]c3c2)cc1OC`, the intracellular bacterial bioluminescence was inactive: 78.3%.

Regarding `O=C(Nc1ccon1)c1cccn(OCc2ccccc2F)c1=O`, the intracellular bacterial bioluminescence is inactive: 65.5%.

Take `CCS(=O)(=O)c1ccc(C(=O)/N=c2/sc3cccc(Cl)c3n2C)cc1`: the intracellular bacterial bioluminescence is inactive: 85.1%.

As to `Cc1ccc(C)c2[nH]c(=O)c(CCNC(=O)COc3ccc(Cl)cc3Cl)cc12`, the intracellular bacterial bioluminescence was inactive: 69.6%.

As for `O=C1COc2ccc(S(=O)(=O)Nc3cccc(C(=O)N4CCOCC4)c3)cc2N1`, the intracellular bacterial bioluminescence was inactive: 96.3%.

In the case of `Cc1csc2nc(O)c(C(=O)NCc3ccccn3)c(=O)n12`, the intracellular bacterial bioluminescence was inactive: 115%.

For the compound `Cc1sc(NC(=O)c2ccco2)nc1-c1ccc2c(c1)CCN2C(=O)C1CC1`, the intracellular bacterial bioluminescence was inactive: 50.9%.

As for `O=C(CC1CCN(C(=O)c2cc3cc(Cl)ccc3[nH]2)CC1)NCc1ccccc1Cl`, the intracellular bacterial bioluminescence is inactive: 122%.

Regarding `COc1ccc(Cn2c(=O)c3cccnc3n(-c3ccccc3)c2=O)cc1`, the intracellular bacterial bioluminescence was inactive: 80%.

`O=C(CSc1nc(O)c2nc[nH]c2n1)N1CCN(c2ccccc2F)CC1`: the intracellular bacterial bioluminescence is inactive: 122%.

`COc1cccc(NC(=O)CSc2ncnc3c2sc2nc4ccccc4cc23)c1`: the intracellular bacterial bioluminescence was inactive: 102%.

For the compound `CC(NC(=O)Cc1csc2nc(-c3ccc(F)cc3)cn12)c1ccccc1` (stereo not given), the intracellular bacterial bioluminescence is inactive: 88.2%.

Regarding `O=C(NCc1ccco1)c1cnc2n(c1=O)CCS2`, the intracellular bacterial bioluminescence is inactive: 89.3%.

Take `CCOC(=O)c1sc(NC(=O)CSC2=NN3CCCC(=O)N=C3S2)c(C(=O)OCC)c1C`: the intracellular bacterial bioluminescence is inactive: 13.2%.

For the compound `COc1ccc2nc3sc(C(=O)Nc4nc(C)c(C)s4)c(N)c3cc2c1`, the intracellular bacterial bioluminescence was inactive: 71.4%.

On to `COc1c(Br)ccc2c1sc1ncnc(OC)c12`, for which the intracellular bacterial bioluminescence was inactive: 73.3%.

As for `CCS(=O)(=O)c1cccc(C(=O)Nc2nc3c(s2)COc2ccccc2-3)c1`, the intracellular bacterial bioluminescence is inactive: 120%.

Values taken from the supplement of paper PMC12578635.
